Results are given in words; binding and its absence hold for the method and conditions named. Binding seen in cells or lysates may run through a third protein. A yes stands for co-enrichment or nearness to the bait. Other partners may have been found.
Target: Tripartite motif-containing 44 (TRIM44), endogenous (human (endogenous in 769-P, Caki-1, OSRC-2, ACHN)) (UniProt Q96DX7)
Assay: affinity purification with mass spectrometry; lysates of 769-P and Caki-1 cells immunoprecipitated with anti-TRIM44 antibody, SDS-PAGE, Coomassie bands cut out, LC-MS/MS

The chains behind the UniProt entries cited, without tags or fusion partners.
UniProt Q96DX7: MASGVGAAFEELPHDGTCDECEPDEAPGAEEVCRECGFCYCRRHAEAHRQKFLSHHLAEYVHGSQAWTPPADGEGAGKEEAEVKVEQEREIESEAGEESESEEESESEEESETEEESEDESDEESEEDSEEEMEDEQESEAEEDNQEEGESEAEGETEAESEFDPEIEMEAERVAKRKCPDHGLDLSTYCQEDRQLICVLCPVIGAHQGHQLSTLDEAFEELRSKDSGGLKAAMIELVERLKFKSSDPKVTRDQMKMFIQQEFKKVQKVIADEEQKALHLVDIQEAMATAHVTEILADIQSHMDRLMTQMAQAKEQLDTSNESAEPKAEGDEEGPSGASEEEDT
UniProt P08670: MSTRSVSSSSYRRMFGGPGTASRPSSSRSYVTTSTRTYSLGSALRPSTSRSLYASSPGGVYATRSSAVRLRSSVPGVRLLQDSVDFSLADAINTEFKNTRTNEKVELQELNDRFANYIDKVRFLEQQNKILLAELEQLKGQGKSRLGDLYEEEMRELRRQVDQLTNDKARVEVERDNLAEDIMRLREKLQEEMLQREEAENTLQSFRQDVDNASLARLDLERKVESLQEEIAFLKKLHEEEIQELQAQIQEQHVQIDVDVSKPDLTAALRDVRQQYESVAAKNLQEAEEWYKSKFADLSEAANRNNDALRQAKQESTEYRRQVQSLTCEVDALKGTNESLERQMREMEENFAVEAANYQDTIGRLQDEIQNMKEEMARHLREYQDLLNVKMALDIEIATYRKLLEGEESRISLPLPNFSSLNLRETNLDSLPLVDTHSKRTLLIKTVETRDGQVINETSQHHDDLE

binding: binds
Substance: vimentin, endogenous (from UniProt P08670 1-466)
